{"source": "PubChem BioAssay AID1508597 (Cure First, 2020)", "test": "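Survival screen with siRNA in ovarian cancer cells derived from patients, with or without rucaparib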 (primary screen)", "cells": "human ovarian carcinoma lines grown from tumours: OCI-P5x (papillary serous) and OCI-C5x (clear cell)", "reagent": "siRNA pool against human genes, 1.25 pmol siRNA per well", "time to read-out": "72 h or 96 h, depending on the cell culture", "treatment": "rucaparib 20 µM (about IC30) or vehicle, present until read-out", "rucaparib or vehicle": "Vehicle", "cell line": "OCI-P5x (serous)", "read-out": "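Luminescent ATP-based viability assay read 72 or 96 h after transfection, depending on culture, given as normalised percent viability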", "reading the numbers": "viability, normalised: higher = more viable cells remaining", "active means": "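Active when normalised viability falls below 80 percent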", "meaning of the calls": "active = viability under 80%; inactive = viability 80% or more", "note": "This is an unselected part of the about 2,100 reagents, in one setting of the screen. 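Calls flag viability under 80% in either arm, not effects specific to rucaparib; the reference for percent is not stated.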 A number with no mark means an inactive call. Not given: the 100% reference."}
{"gene knocked down":"LYN (LYN proto-oncogene, Src family tyrosine kinase)","PubChem SID":"SID405527582","technical replicate":"1","viability, normalised (%)":82.8}
{"gene knocked down":"LYN (LYN proto-oncogene, Src family tyrosine kinase)","PubChem SID":"SID405527582","technical replicate":"2","viability, normalised (%)":84.9}
{"gene knocked down":"LYN (LYN proto-oncogene, Src family tyrosine kinase)","PubChem SID":"SID405527582","technical replicate":"3","viability, normalised (%)":83.5}
{"gene knocked down":"POLE (DNA polymerase epsilon, catalytic subunit)","PubChem SID":"SID405528329","technical replicate":"1","viability, normalised (%)":"72.7 (active)"}
{"gene knocked down":"POLE (DNA polymerase epsilon, catalytic subunit)","PubChem SID":"SID405528329","technical replicate":"2","viability, normalised (%)":"69.2 (active)"}
{"gene knocked down":"POLE (DNA polymerase epsilon, catalytic subunit)","PubChem SID":"SID405528329","technical replicate":"3","viability, normalised (%)":"63.1 (active)"}
{"gene knocked down":"XRCC4 (X-ray repair cross complementing 4)","PubChem SID":"SID405528448","technical replicate":"1","viability, normalised (%)":83}
{"gene knocked down":"XRCC4 (X-ray repair cross complementing 4)","PubChem SID":"SID405528448","technical replicate":"2","viability, normalised (%)":80.5}
{"gene knocked down":"XRCC4 (X-ray repair cross complementing 4)","PubChem SID":"SID405528448","technical replicate":"3","viability, normalised (%)":"75.4 (active)"}
{"gene knocked down":"REV3L (REV3 like, DNA directed polymerase zeta catalytic subunit)","PubChem SID":"SID405528385","technical replicate":"1","viability, normalised (%)":"37 (active)"}
{"gene knocked down":"REV3L (REV3 like, DNA directed polymerase zeta catalytic subunit)","PubChem SID":"SID405528385","technical replicate":"2","viability, normalised (%)":"49.1 (active)"}
{"gene knocked down":"REV3L (REV3 like, DNA directed polymerase zeta catalytic subunit)","PubChem SID":"SID405528385","technical replicate":"3","viability, normalised (%)":"43.6 (active)"}
{"gene knocked down":"ARRB1 (arrestin beta 1)","PubChem SID":"SID405527984","technical replicate":"1","viability, normalised (%)":"75.6 (active)"}
{"gene knocked down":"ARRB1 (arrestin beta 1)","PubChem SID":"SID405527984","technical replicate":"2","viability, normalised (%)":81.2}
{"gene knocked down":"ARRB1 (arrestin beta 1)","PubChem SID":"SID405527984","technical replicate":"3","viability, normalised (%)":81.1}
{"gene knocked down":"MEMO1 (mediator of cell motility 1)","PubChem SID":"SID405526731","technical replicate":"1","viability, normalised (%)":"50.6 (active)"}
{"gene knocked down":"MEMO1 (mediator of cell motility 1)","PubChem SID":"SID405526731","technical replicate":"2","viability, normalised (%)":"58.8 (active)"}
{"gene knocked down":"MEMO1 (mediator of cell motility 1)","PubChem SID":"SID405526731","technical replicate":"3","viability, normalised (%)":"54.5 (active)"}
{"gene knocked down":"P2RY2 (purinergic receptor P2Y2)","PubChem SID":"SID405527100","technical replicate":"1","viability, normalised (%)":"57.8 (active)"}
{"gene knocked down":"P2RY2 (purinergic receptor P2Y2)","PubChem SID":"SID405527100","technical replicate":"2","viability, normalised (%)":"69.8 (active)"}
{"gene knocked down":"P2RY2 (purinergic receptor P2Y2)","PubChem SID":"SID405527100","technical replicate":"3","viability, normalised (%)":"62.6 (active)"}
{"gene knocked down":"CDT1 (chromatin licensing and DNA replication factor 1)","PubChem SID":"SID405528087","technical replicate":"1","viability, normalised (%)":"66.6 (active)"}
{"gene knocked down":"CDT1 (chromatin licensing and DNA replication factor 1)","PubChem SID":"SID405528087","technical replicate":"2","viability, normalised (%)":"61.4 (active)"}
{"gene knocked down":"CDT1 (chromatin licensing and DNA replication factor 1)","PubChem SID":"SID405528087","technical replicate":"3","viability, normalised (%)":84.1}
{"gene knocked down":"TNRC6A (trinucleotide repeat containing adaptor 6A)","PubChem SID":"SID405526574","technical replicate":"1","viability, normalised (%)":83.2}
{"gene knocked down":"TNRC6A (trinucleotide repeat containing adaptor 6A)","PubChem SID":"SID405526574","technical replicate":"2","viability, normalised (%)":"70.5 (active)"}
{"gene knocked down":"TNRC6A (trinucleotide repeat containing adaptor 6A)","PubChem SID":"SID405526574","technical replicate":"3","viability, normalised (%)":89.7}
{"gene knocked down":"MET (MET proto-oncogene, receptor tyrosine kinase)","PubChem SID":"SID405527468","technical replicate":"1","viability, normalised (%)":101}
{"gene knocked down":"MET (MET proto-oncogene, receptor tyrosine kinase)","PubChem SID":"SID405527468","technical replicate":"2","viability, normalised (%)":83.7}
{"gene knocked down":"MET (MET proto-oncogene, receptor tyrosine kinase)","PubChem SID":"SID405527468","technical replicate":"3","viability, normalised (%)":90}
{"gene knocked down":"BCL2 (BCL2 apoptosis regulator)","PubChem SID":"SID405528023","technical replicate":"1","viability, normalised (%)":"63.5 (active)"}
{"gene knocked down":"BCL2 (BCL2 apoptosis regulator)","PubChem SID":"SID405528023","technical replicate":"2","viability, normalised (%)":"76.2 (active)"}
{"gene knocked down":"BCL2 (BCL2 apoptosis regulator)","PubChem SID":"SID405528023","technical replicate":"3","viability, normalised (%)":"76.4 (active)"}

Single entries from above.
Entry for POLE (DNA polymerase epsilon, catalytic subunit) [SID405528329], technical replicate 2 under “viability, normalised (%)”: 69.2 (active)
Under “viability, normalised (%)”, CDT1 (chromatin licensing and DNA replication factor 1) [SID405528087], technical replicate 3 shows 84.1
Result for TNRC6A (trinucleotide repeat containing adaptor 6A) [SID405526574], technical replicate 3 under “viability, normalised (%)”: 89.7
